The numbers were not newly measured in patent US7022720B2, “Synthetic diazonamides as novel anti-mitotic agents” (Board of Regents, The University of Texas System, priority 2001, dated 2006), which cites them from elsewhere.

Structures are written as SMILES.

The data set has as its system NCI 60-cell line human tumor screen. The conditions noted are these: COMPARE analysis, TGI level; cited from earlier work.
Take `CO[C@@H](/C(C)=C/C=C/C(C)=C/c1coc(C)n1)[C@@H](C)[C@@H]1C[C@H](O)[C@@]2(C)O[C@@H]2/C=C/[C@@H](C)[C@H]2C[C@H](CC(=O)O2)C[C@@H]2O[C@H]2C(=O)O1` [Rhizoxin]: the “TGI (PCC), pairwise correlation coefficient with diazonamide” value (shortened to “TGI (PCC)”) is listed as 0.593.
For `COc1cc2cc(c1Cl)N(C)C(=O)C[C@H](OC(=O)[C@H](C)N(C)C(C)=O)[C@]1(C)O[C@H]1[C@H](C)[C@@H]1C[C@@](O)(NC(=O)O1)[C@H](OC)/C=C/C=C(\C)C2` [Maytansine], the “TGI (PCC)” value is 0.615.
With `CC[C@]1(O)C[C@H]2CN(CCc3c([nH]c4ccccc34)[C@@](C(=O)OC)(c3cc4c(cc3OC)N(C=O)[C@H]3[C@@](O)(C(=O)OC)[C@H](OC(C)=O)[C@]5(CC)C=CCN6CC[C@]43[C@@H]65)C2)C1` [Vincristine], the “TGI (PCC)” value was 0.610.
In the case of `CC[C@]1(O)C[C@@H]2CN(CCc3c([nH]c4ccccc34)[C@@](C(=O)OC)(c3cc4c(cc3OC)N(C)[C@H]3[C@@](O)(C(=O)OC)[C@H](OC(C)=O)[C@]5(CC)C=CCN6CC[C@]43[C@@H]65)C2)C1` [vinblastine], the “TGI (PCC)” value is listed as 0.679.
